The text below walks through data of the supplement of paper PMC10849652.

Amino acid sequences for entries named in this document (tags omitted). A change or cut given only in a name is not applied to a line headed by its entry.
UniProt O14530: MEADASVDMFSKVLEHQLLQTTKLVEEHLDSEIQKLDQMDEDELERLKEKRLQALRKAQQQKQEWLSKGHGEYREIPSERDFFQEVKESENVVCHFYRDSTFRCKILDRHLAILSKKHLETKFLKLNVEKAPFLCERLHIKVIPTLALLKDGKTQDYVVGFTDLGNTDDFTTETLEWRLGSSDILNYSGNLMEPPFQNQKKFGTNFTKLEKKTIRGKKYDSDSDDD
UniProt P63279, whole entry, looked up: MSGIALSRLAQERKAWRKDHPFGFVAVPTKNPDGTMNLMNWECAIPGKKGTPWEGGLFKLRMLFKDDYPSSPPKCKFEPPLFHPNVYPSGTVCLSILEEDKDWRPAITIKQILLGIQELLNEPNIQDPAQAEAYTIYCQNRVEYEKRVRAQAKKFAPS
UniProt Q13454: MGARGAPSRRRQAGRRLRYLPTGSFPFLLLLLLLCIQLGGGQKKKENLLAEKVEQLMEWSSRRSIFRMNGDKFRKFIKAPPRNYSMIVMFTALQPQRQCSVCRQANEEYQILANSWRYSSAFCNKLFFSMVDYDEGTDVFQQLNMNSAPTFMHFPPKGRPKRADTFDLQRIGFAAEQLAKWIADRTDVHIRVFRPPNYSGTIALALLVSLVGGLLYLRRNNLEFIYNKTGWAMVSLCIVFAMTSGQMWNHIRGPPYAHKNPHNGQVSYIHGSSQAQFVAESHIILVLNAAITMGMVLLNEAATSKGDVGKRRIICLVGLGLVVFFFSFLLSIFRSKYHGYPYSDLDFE
UniProt Q9H832: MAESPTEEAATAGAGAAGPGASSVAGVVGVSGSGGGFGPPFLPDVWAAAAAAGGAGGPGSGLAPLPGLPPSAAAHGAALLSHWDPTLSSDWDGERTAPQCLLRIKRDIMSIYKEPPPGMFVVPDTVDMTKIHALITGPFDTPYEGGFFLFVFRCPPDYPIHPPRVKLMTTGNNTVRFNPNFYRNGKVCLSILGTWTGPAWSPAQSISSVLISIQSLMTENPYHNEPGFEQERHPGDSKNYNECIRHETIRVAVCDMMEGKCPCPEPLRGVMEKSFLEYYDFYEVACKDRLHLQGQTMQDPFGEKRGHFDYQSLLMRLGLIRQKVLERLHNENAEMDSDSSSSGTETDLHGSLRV
UniProt Q8IWV8: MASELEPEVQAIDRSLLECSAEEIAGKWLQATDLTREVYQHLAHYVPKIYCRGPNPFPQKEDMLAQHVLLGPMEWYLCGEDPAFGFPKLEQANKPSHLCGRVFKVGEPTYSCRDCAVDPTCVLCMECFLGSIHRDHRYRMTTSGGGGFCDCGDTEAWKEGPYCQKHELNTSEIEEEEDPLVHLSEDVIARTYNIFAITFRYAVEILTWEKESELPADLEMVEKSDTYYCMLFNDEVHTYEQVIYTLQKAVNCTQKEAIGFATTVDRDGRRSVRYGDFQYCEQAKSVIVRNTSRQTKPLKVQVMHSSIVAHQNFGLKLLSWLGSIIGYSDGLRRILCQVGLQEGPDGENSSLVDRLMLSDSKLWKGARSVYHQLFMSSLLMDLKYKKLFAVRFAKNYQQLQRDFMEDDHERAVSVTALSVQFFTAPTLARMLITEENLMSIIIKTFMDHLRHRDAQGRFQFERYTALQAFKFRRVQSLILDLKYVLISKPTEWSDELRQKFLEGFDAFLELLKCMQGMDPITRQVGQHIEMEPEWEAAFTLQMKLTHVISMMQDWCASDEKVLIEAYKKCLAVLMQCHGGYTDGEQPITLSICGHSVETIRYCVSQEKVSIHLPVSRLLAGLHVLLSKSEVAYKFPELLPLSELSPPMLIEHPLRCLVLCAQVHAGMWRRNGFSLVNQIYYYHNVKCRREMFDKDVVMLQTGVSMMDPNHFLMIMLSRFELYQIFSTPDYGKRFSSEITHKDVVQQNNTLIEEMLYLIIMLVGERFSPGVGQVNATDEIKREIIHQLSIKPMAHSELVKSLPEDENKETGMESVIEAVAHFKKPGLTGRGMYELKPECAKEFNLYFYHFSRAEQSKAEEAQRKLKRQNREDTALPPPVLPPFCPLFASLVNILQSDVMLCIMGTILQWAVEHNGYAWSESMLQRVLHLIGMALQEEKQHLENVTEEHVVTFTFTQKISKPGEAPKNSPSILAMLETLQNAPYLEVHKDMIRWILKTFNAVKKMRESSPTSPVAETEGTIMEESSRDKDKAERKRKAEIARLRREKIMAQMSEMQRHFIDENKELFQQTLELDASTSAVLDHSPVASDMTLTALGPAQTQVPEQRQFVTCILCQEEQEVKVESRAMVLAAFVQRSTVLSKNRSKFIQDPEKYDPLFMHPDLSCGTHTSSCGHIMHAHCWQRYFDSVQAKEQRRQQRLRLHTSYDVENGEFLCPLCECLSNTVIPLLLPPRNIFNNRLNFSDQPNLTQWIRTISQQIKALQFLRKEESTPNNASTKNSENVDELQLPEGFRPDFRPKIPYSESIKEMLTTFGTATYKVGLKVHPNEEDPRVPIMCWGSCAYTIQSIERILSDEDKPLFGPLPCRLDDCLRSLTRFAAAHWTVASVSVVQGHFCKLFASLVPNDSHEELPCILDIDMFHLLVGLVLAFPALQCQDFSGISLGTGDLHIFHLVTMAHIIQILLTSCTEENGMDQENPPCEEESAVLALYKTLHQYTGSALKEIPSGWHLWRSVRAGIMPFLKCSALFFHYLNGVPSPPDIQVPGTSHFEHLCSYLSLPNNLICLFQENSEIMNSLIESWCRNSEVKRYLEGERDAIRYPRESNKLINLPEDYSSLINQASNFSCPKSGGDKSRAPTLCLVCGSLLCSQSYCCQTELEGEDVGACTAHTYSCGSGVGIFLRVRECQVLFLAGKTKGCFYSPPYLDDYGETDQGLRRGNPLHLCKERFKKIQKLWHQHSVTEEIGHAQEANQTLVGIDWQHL
UniProt Q96LJ8: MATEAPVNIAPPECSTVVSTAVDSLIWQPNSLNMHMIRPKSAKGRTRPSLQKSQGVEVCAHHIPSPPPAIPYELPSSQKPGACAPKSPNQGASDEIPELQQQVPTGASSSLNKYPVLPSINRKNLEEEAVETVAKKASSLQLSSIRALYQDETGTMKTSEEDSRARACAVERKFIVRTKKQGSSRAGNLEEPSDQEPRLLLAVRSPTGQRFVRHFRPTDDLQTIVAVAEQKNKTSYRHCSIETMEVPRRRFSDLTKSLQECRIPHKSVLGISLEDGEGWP
UniProt P49459, whole entry, looked up: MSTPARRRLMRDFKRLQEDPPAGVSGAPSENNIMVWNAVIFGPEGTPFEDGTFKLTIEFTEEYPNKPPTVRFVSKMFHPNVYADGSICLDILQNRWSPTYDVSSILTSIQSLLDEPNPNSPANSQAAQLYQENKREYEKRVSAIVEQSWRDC
UniProt Q9BTX7: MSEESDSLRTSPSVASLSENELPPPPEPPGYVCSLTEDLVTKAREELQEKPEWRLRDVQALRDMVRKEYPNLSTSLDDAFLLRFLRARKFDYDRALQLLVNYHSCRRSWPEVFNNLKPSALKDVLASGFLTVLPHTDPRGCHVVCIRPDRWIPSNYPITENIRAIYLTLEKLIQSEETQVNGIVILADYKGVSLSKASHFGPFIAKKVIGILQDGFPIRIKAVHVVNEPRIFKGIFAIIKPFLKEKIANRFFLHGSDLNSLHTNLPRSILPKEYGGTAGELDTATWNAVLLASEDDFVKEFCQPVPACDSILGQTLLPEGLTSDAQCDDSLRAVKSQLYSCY
UniProt Q13509, whole entry, looked up: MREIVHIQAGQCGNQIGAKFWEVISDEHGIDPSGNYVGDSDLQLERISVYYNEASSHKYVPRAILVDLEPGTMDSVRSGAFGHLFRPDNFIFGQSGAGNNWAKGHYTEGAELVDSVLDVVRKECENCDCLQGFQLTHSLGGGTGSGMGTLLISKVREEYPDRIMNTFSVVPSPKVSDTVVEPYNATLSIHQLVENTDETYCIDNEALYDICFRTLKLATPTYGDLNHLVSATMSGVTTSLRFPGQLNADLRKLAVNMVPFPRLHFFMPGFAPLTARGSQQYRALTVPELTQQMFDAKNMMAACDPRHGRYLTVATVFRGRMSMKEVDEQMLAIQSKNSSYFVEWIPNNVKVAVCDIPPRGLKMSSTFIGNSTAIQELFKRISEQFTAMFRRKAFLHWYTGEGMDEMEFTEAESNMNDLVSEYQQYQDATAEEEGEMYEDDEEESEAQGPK
UniProt Q6ZT12: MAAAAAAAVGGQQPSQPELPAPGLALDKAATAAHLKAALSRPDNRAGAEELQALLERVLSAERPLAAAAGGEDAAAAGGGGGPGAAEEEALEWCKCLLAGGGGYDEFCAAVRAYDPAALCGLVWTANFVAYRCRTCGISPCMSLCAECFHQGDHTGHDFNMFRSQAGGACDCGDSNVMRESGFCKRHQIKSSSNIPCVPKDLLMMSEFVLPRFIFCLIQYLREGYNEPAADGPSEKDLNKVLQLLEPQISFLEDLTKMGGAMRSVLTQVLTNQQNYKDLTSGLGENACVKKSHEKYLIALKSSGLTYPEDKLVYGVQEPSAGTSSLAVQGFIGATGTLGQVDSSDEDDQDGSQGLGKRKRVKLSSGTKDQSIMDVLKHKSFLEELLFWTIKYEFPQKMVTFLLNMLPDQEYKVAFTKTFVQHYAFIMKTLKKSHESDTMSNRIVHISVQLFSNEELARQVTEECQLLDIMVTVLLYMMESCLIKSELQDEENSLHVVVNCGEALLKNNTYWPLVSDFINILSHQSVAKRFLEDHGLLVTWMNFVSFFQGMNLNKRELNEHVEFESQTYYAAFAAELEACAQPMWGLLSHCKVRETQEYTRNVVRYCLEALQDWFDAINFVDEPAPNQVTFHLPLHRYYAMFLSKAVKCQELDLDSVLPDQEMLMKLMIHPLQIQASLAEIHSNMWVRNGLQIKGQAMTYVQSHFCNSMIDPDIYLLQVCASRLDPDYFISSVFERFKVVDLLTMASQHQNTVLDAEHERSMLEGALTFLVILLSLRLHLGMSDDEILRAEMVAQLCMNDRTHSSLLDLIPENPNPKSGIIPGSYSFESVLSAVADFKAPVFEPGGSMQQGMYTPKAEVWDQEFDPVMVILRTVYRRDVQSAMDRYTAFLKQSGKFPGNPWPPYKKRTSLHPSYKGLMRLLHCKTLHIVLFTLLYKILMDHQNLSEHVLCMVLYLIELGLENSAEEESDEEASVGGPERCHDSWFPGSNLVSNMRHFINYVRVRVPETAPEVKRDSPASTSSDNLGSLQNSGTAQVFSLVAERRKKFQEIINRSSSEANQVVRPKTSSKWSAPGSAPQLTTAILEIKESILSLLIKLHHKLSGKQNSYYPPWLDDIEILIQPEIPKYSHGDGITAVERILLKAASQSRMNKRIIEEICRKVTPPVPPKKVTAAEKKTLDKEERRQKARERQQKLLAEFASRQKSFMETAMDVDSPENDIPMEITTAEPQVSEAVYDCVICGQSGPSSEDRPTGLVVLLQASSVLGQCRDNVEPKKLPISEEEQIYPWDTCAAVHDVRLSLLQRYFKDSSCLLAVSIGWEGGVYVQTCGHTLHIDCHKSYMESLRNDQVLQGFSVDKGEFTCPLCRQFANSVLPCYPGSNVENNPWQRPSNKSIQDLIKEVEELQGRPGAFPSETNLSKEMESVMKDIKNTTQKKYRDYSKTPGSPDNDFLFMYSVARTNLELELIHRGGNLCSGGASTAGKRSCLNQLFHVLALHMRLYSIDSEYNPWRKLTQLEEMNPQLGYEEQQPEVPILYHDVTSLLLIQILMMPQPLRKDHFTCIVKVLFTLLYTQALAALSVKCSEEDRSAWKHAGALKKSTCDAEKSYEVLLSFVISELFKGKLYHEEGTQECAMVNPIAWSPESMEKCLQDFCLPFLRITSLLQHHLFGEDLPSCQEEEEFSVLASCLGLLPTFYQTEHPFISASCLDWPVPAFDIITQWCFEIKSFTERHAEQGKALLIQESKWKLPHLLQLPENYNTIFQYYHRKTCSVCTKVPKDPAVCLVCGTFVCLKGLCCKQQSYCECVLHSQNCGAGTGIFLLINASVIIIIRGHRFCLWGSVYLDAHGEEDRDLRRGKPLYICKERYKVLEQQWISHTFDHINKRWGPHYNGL
UniProt Q5JXB2: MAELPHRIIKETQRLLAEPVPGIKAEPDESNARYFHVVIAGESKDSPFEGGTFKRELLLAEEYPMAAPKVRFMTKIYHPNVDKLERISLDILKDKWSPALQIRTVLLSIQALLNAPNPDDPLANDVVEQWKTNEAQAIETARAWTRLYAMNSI
UniProt Q12792, whole entry, looked up: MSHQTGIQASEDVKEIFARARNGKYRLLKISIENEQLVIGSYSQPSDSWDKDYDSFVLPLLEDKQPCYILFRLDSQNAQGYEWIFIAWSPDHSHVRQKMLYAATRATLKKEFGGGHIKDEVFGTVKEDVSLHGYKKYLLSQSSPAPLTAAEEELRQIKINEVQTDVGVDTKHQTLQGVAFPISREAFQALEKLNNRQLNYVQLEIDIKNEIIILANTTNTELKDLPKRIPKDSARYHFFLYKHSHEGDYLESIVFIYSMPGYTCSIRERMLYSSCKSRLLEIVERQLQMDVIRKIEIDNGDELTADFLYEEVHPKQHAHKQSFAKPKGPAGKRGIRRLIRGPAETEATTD

The other results are listed elsewhere or left out.

Compound in one assay: CN1CCC(CNc2ccc3ncc(-c4cccc(OC(F)(F)F)c4)n3n2)CC1
Put plainly: log2 fold change, soluble protein after heating vs DMSO (PISA); higher = thermal stabilisation; K562 lysate, 10 uM; active = over 0.2 and 3.5 SD of the protein, either way, in both replicates (recomputed). The essentials:
(§1)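 Following dounce homogenisation of K562 pellets in PBS pH 7.4 with 1 mM MgCl2, crude extract at 1 mg/mL protein was incubated for 30 min with 10 μM compound. Aliquots were then heated for 3 min over 48°C-58°C and pooled, NP-40 was added to 0.5% at 4°C, and soluble protein was recovered as the supernatant at 21,000xg for 90 min. Channel-sum-equalised TMTpro 16plex LC-MS/MS quantified this protein. Each value, from duplicates, is a log-two fold change in thermal stability relative to solvent controls.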
On to TXNDC9 (UniProt O14530), for which the log2 fold change is inactive: 0.072.
As to UBE2G1 (UniProt P62253), the log2 fold change was inactive: 0.025.
As for TUBE1 (UniProt Q9UJT0), the log2 fold change is inactive: -0.082.
Turning to UBP1 (UniProt Q9NZI7), the log2 fold change was inactive: -0.24.
Same read-out and setting: the value for UCK1 isoform 4 (UniProt Q9HA47) was inactive: 0.109.
For TUBA1B (UniProt P68363), the log2 fold change was inactive: -0.011.
Still for that read-out and setting: the value for UBFD1 (UniProt O14562) was inactive: 0.031; that for UBQLN2 (UniProt Q9UHD9) was inactive: 0.002.
As to UBE2O (UniProt Q9C0C9), the log2 fold change was inactive: 0.041.
Same read-out and setting: the value for UBA6 was inactive: -0.017; that for UBE2T (UniProt Q9NPD8) was inactive: 0.086.
As to UBE2I (UniProt P63279), the log2 fold change was inactive: 0.023.
TUSC3 isoform 2 (UniProt Q13454): the log2 fold change was inactive: 0.05.
Same read-out and setting: the value for UBR5 (UniProt O95071) was inactive: 0.003; that for UBE2H (UniProt P62256) was active: -0.227; that for UBXN6 (UniProt Q9BZV1) was inactive: -0.015.
Take U2AF2 (UniProt P26368): the log2 fold change was inactive: 0.041.
Take UBE2Z (UniProt Q9H832): the log2 fold change was inactive: 0.037.
Same read-out and setting: the value for UBXN4 (UniProt Q92575) was inactive: 0.184.
The same measure, in the same setting: in the case of UAP1L1 (UniProt Q3KQV9) it was inactive: -0.131.
For UBR2 isoform 4 (UniProt Q8IWV8), the log2 fold change was inactive: -0.007.
For UBXN10 (UniProt Q96LJ8), the log2 fold change was inactive: 0.021.
The same measure, in the same setting: the value for UBE2A (UniProt P49459) was inactive: -0.06.
U2SURP (UniProt O15042): the log2 fold change was inactive: -0.031.
On the same count and under the same terms, in the case of TTPAL (UniProt Q9BTX7) it was inactive: 0.01; in that of TUBB3 (UniProt Q13509), inactive: 0.012.
Take TYW3 (UniProt Q6IPR3): the log2 fold change is inactive: 0.031.
Still for that read-out and setting: the value for TXNL1 (UniProt O43396) was inactive: 0.072.
For UBAP2 (UniProt Q5T6F2), the log2 fold change was inactive: 0.106.
On to UBE2Q1 (UniProt Q7Z7E8), for which the log2 fold change was inactive: 0.03.
Regarding UBR3 isoform 4 (UniProt Q6ZT12), the log2 fold change is inactive: -0.044.
On the same count and under the same terms, in the case of UBE2NL (UniProt Q5JXB2) it was inactive: -0.004; in that of TUT4 (UniProt Q5TAX3), inactive: 0.083.
Still for that read-out and setting: in the case of TYMS (UniProt P04818) it was inactive: -0.064.
Still for that read-out and setting: in the case of TWF1 (UniProt Q12792) it was inactive: 0.067.

Compound in the next assay: CN1CCN(CCOc2cc(OC3CCOCC3)c3c(Nc4c(Cl)ccc5c4OCO5)ncnc3c2)CC1 [saracatinib]
Described as above. The gist of the method: as §1
Regarding TXNDC9 (UniProt O14530), the log2 fold change was inactive: 0.049.
For the target UBE2G1 (UniProt P62253), the log2 fold change was inactive: 0.014.
Same read-out and setting: the value for TUBE1 (UniProt Q9UJT0) was inactive: 0.089; that for UBP1 (UniProt Q9NZI7) was inactive: -0.008.
As to UCK1 isoform 4 (UniProt Q9HA47), the log2 fold change was inactive: 0.053.
Still for that read-out and setting: the value for TUBA1B (UniProt P68363) was inactive: 0.003.
As to UBFD1 (UniProt O14562), the log2 fold change is inactive: 0.
Same read-out and setting: in the case of UBQLN2 (UniProt Q9UHD9) it was inactive: 0.013.
The same measure, in the same setting: in the case of UBE2O (UniProt Q9C0C9) it was inactive: 0.02; in that of UBA6, inactive: 0.02.
Same read-out and setting: the value for UBE2T (UniProt Q9NPD8) was inactive: -0.026.
With UBE2I (UniProt P63279), the log2 fold change was inactive: -0.01.
On to TUSC3 isoform 2 (UniProt Q13454), for which the log2 fold change is inactive: 0.014.
Still for that read-out and setting: in the case of UBR5 (UniProt O95071) it was inactive: 0.019.
On the same count and under the same terms, in the case of UBE2H (UniProt P62256) it was inactive: -0.056.
On the same count and under the same terms, the value for UBXN6 (UniProt Q9BZV1) was inactive: -0.03.
In the case of U2AF2 (UniProt P26368), the log2 fold change is inactive: -0.007.
Turning to UBE2Z (UniProt Q9H832), the log2 fold change was inactive: -0.017.
For UBXN4 (UniProt Q92575), the log2 fold change was inactive: 0.03.
With UAP1L1 (UniProt Q3KQV9), the log2 fold change is inactive: 0.188.
Same read-out and setting: the value for UBR2 isoform 4 (UniProt Q8IWV8) was inactive: 0.022; that for UBXN10 (UniProt Q96LJ8) was inactive: -0.016.
Still for that read-out and setting: in the case of UBE2A (UniProt P49459) it was inactive: -0.033.
As to U2SURP (UniProt O15042), the log2 fold change is inactive: -0.005.
Same read-out and setting: the value for TTPAL (UniProt Q9BTX7) was inactive: -0.017; that for TUBB3 (UniProt Q13509) was inactive: 0.015; that for TYW3 (UniProt Q6IPR3) was inactive: -0.031.
For TXNL1 (UniProt O43396), the log2 fold change was inactive: 0.
As for UBAP2 (UniProt Q5T6F2), the log2 fold change was inactive: 0.028.
As to UBE2Q1 (UniProt Q7Z7E8), the log2 fold change was inactive: -0.014.
Still for that read-out and setting: the value for UBR3 isoform 4 (UniProt Q6ZT12) was inactive: 0.044; that for UBE2NL (UniProt Q5JXB2) was inactive: 0.074.
On the same count and under the same terms, in the case of TUT4 (UniProt Q5TAX3) it was inactive: -0.01.
With TYMS (UniProt P04818), the log2 fold change was inactive: 0.
As for TWF1 (UniProt Q12792), the log2 fold change is inactive: -0.046.

Compound in another assay: CN1CCN(c2nc(C3=C(c4c[nH]c5ccccc45)C(=O)NC3=O)c3ccccc3n2)CC1 [sotrastaurin]
Described as above. The essentials:
as §1
As to TXNDC9 (UniProt O14530), the log2 fold change is inactive: -0.017.
Regarding UBE2G1 (UniProt P62253), the log2 fold change is inactive: 0.008.
Same read-out and setting: in the case of TUBE1 (UniProt Q9UJT0) it was inactive: 0.043; in that of UBP1 (UniProt Q9NZI7), inactive: -0.063; in that of UCK1 isoform 4 (UniProt Q9HA47), inactive: 0.005.
The same measure, in the same setting: in the case of TUBA1B (UniProt P68363) it was inactive: 0.017; in that of UBFD1 (UniProt O14562), inactive: -0.01.
Same read-out and setting: in the case of UBQLN2 (UniProt Q9UHD9) it was inactive: 0.036; in that of UBE2O (UniProt Q9C0C9), inactive: -0.003; in that of UBA6, inactive: 0.013.
In the case of UBE2T (UniProt Q9NPD8), the log2 fold change is inactive: -0.015.
The same measure, in the same setting: in the case of UBE2I (UniProt P63279) it was inactive: -0.013; in that of TUSC3 isoform 2 (UniProt Q13454), inactive: -0.017.
Still for that read-out and setting: in the case of UBR5 (UniProt O95071) it was inactive: -0.005.
Still for that read-out and setting: the value for UBE2H (UniProt P62256) was inactive: -0.02; that for UBXN6 (UniProt Q9BZV1) was inactive: 0.025; that for U2AF2 (UniProt P26368) was inactive: -0.008.
Take UBE2Z (UniProt Q9H832): the log2 fold change was inactive: -0.067.
Still for that read-out and setting: in the case of UBXN4 (UniProt Q92575) it was inactive: -0.015; in that of UAP1L1 (UniProt Q3KQV9), inactive: 0.031; in that of UBR2 isoform 4 (UniProt Q8IWV8), inactive: 0.006.
Same read-out and setting: the value for UBXN10 (UniProt Q96LJ8) was inactive: -0.012.
Still for that read-out and setting: the value for UBE2A (UniProt P49459) was inactive: -0.022.
For U2SURP (UniProt O15042), the log2 fold change is inactive: -0.013.
For the target TTPAL (UniProt Q9BTX7), the log2 fold change was inactive: -0.024.
As to TUBB3 (UniProt Q13509), the log2 fold change was inactive: 0.027.
On to TYW3 (UniProt Q6IPR3), for which the log2 fold change was inactive: -0.003.
The same measure, in the same setting: in the case of TXNL1 (UniProt O43396) it was inactive: 0.003; in that of UBAP2 (UniProt Q5T6F2), inactive: 0.02; in that of UBE2Q1 (UniProt Q7Z7E8), inactive: -0.01.
As to UBR3 isoform 4 (UniProt Q6ZT12), the log2 fold change is inactive: 0.009.
For the target UBE2NL (UniProt Q5JXB2), the log2 fold change was inactive: -0.036.
Take TUT4 (UniProt Q5TAX3): the log2 fold change is inactive: 0.035.
The same measure, in the same setting: the value for TYMS (UniProt P04818) was inactive: 0.008; that for TWF1 (UniProt Q12792) was inactive: 0.038.
